Source: PubChem BioAssay AID686943 (Drosophila RNAi Screening Center, 2013)
The deposit covers about 23,000 reagents; this is an unselected part of those with a known target gene and a result. 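Extra replicates exist only for a retested subset of genes; insulin dose and duration not given; both raised and lowered dpERK matter.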 The numbers tell different reagents against one gene apart. Not all columns of the deposit are shown. No sequences are given here. Not given: the amount of reagent, the time to read-out.

Aim: 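Knockdowns that increase or decrease active ERK after insulin receptor stimulation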 (primary screen)
Cell system: Drosophila S2R+ haemocyte-like cells expressing YFP-tagged ERK (Rolled)
Reagent: long dsRNA against Drosophila genes
Treatment: insulin stimulation versus unstimulated cells; dose and duration not given
Read-out: 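Per-plate z-scores of phospho-ERK immunostaining normalised to YFP-tagged ERK, measured with and without insulin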
Direction: replicate 1, z-score of dpERK with insulin and replicate 2, z-score of dpERK with insulin: higher = more active ERK per ERK-YFP after insulin

Depletion of Erk7 #1 gave: replicate 1, z-score of dpERK with insulin -0.03; replicate 2, z-score of dpERK with insulin 0.93.
Against Erk7 #2, the values are replicate 1, z-score of dpERK with insulin 0.14; replicate 2, z-score of dpERK with insulin -0.83.
For Erk7 #3, the values are replicate 1, z-score of dpERK with insulin 0.35; replicate 2, z-score of dpERK with insulin 0.31.
CG5011 showed replicate 1, z-score of dpERK with insulin 0.94; replicate 2, z-score of dpERK with insulin 0.49.

Looked up above.
For “replicate 1, z-score of dpERK with insulin”, Erk7 #3 shows 0.35
Erk7 #1, replicate 1, z-score of dpERK with insulin → -0.03

More entries:
nuf #1 scored replicate 1, z-score of dpERK with insulin 0.7; replicate 2, z-score of dpERK with insulin -0.06.
After knock-down of nuf #2 the results were replicate 1, z-score of dpERK with insulin -2.43; replicate 2, z-score of dpERK with insulin -2.9.
CG17672 #1 showed replicate 1, z-score of dpERK with insulin -5.84; replicate 2, z-score of dpERK with insulin -3.49.
Silencing of CG17672 #2 resulted in: replicate 1, z-score of dpERK with insulin 0.46; replicate 2, z-score of dpERK with insulin -0.25.
Knock-down of CG6813 came out at: replicate 1, z-score of dpERK with insulin 0.2; replicate 2, z-score of dpERK with insulin 0.3.
After knock-down of CG15484 #1, the record shows replicate 1, z-score of dpERK with insulin 0.48; replicate 2, z-score of dpERK with insulin -1.45.
CG15484 #2 scored replicate 1, z-score of dpERK with insulin -0.71; replicate 2, z-score of dpERK with insulin -0.32.
After knock-down of Atat the results were replicate 1, z-score of dpERK with insulin -0.1; replicate 2, z-score of dpERK with insulin -0.08.
